Consider twelve substances from patent publication US9493512B2 (NOVARTIS AG, priority 2012, dated 2016).

The data set is described as follows: general procedure: solution-phase peptide synthesis; HATU/EDIPA; EDC.HCl/DMAP for esterification; HATU/DMAP for macrolactamization. The note with it: for final HPLC purity: HPLC area %.

As for “Isobutyryl-Gln(Trt)-Thr(Ile-Tyr(tBu)Me-Ile-H)-Leu-OBzl”, for the setting “late stage modification step”, the step yield came to 91.8%.
“Isobutyryl-Gln(Trt)-Thr(Ile-Tyr(tBu)Me-Ile-Fmoc)-Leu-Obzl” registered a step yield (coupling step) of 89.6%.
Regarding “Isobutyryl-Gln(Trt)-Thr(Ile-Tyr(tBu)Me-Ile-Synthon(TBDPS)-fmoc)-Leu-OBzl”, where the note is “coupling step”, the step yield was 99%.
In turn, “Isobutyryl-Gln(Trt)-Thr(Ile-Tyr(tBu)Me-Fmoc)-Leu-OBzl” gave a step yield (coupling step, overall over 2 steps from compound 21) of 85%.
Under “late stage modification step”, Isobutyryl-Gln(Trt)-Thr(Ile-H)-Leu-OBzl showed a step yield of 93.4%.
Consider “benzyl N^2-(2-methylpropanoyl)-N^5-(triphenylmethyl)-L-glutaminyl-O—{N-[(2S)-2-amino-5-hydroxypentanoyl]-L-isoleucyl-O-(tert-butyl)-N-methyl-L-tyrosyl-L-isoleucyl}-L-threonyl-L-leucinate”, for which the step yield (late stage modification step) is reported as 90%.
The substance “N^2-(2-methylpropanoyl)-N^5-(triphenylmethyl)-L-glutaminyl-O—{N-[(2S)-2-amino-5-hydroxypentanoyl]-L-isoleucyl-O-(tert-butyl)-N-methyl-L-tyrosyl-L-isoleucyl}-L-threonyl-L-leucine” had a step yield (late stage modification step) of 97.7%.
Take “Isobutyryl-Gln(Trt)-Thr(Ile-Fmoc)-Leu-OBzl”: the “final HPLC purity” value (coupling step) was 89.3 area % HPLC-purity.
“N^2-(2-methylpropanoyl)-N^5-(triphenylmethyl)-L-glutaminyl-O—{N-[(2S)-2-amino-4-(1,3-dioxolan-2-yl)butanoyl]-L-isoleucyl-O-(tert-butyl)-N-methyl-L-tyrosinyl-L-isoleucyl}-L-threonyl-L-leucine” came in with a step yield (late stage modification step) of 93.8%.
Substance “benzyl N^2-(2-methylpropanoyl)-N^5-(triphenylmethyl)-L-glutaminyl-O—{N-[(2S)-2-(dibenzylamino)-4-(1,3-dioxolan-2-yl)butanoyl]-L-isoleucyl-O-(tert-butyl)-N-methyl-L-tyrosyl-L-isoleucyl}-L-threonyl-L-leucinate” registered a step yield (coupling step) of 91.2%.
Take “Isobutyryl-Gln(Trt)-Thr(Ile-Tyr(tBu)Me-H)-Leu-OBzl”: the “final HPLC purity” value (late stage modification step) is reported as 96.8 a % HPLC purity.
Take “Isobutyryl-Gln(Trt)-Thr(Ile-alloc)-Leu-OBzl”: for the setting “coupling step”, the difficulty met entry is reported as “ca. 10% racemization on Alloc-Ile-OH during esterification” and the step yield came out at 89.2%.
